Data from PMC4869170.
These are yes or no findings as the source states them, for the method shown. In cells and extracts the contact can be indirect. Here binding means that the protein was enriched with, or labelled near, the bait; the list need not be complete. Blank lines part the entries; values can stand above or below the binder they belong to.

The chains behind the UniProt entries cited, without tags or fusion partners.
UniProt P61006: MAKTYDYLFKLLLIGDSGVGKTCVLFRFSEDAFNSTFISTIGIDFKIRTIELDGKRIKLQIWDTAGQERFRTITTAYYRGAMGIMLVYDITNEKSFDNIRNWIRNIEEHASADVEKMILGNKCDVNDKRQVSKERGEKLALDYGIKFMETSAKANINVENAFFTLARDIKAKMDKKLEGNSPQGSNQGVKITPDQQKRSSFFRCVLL
UniProt O60303: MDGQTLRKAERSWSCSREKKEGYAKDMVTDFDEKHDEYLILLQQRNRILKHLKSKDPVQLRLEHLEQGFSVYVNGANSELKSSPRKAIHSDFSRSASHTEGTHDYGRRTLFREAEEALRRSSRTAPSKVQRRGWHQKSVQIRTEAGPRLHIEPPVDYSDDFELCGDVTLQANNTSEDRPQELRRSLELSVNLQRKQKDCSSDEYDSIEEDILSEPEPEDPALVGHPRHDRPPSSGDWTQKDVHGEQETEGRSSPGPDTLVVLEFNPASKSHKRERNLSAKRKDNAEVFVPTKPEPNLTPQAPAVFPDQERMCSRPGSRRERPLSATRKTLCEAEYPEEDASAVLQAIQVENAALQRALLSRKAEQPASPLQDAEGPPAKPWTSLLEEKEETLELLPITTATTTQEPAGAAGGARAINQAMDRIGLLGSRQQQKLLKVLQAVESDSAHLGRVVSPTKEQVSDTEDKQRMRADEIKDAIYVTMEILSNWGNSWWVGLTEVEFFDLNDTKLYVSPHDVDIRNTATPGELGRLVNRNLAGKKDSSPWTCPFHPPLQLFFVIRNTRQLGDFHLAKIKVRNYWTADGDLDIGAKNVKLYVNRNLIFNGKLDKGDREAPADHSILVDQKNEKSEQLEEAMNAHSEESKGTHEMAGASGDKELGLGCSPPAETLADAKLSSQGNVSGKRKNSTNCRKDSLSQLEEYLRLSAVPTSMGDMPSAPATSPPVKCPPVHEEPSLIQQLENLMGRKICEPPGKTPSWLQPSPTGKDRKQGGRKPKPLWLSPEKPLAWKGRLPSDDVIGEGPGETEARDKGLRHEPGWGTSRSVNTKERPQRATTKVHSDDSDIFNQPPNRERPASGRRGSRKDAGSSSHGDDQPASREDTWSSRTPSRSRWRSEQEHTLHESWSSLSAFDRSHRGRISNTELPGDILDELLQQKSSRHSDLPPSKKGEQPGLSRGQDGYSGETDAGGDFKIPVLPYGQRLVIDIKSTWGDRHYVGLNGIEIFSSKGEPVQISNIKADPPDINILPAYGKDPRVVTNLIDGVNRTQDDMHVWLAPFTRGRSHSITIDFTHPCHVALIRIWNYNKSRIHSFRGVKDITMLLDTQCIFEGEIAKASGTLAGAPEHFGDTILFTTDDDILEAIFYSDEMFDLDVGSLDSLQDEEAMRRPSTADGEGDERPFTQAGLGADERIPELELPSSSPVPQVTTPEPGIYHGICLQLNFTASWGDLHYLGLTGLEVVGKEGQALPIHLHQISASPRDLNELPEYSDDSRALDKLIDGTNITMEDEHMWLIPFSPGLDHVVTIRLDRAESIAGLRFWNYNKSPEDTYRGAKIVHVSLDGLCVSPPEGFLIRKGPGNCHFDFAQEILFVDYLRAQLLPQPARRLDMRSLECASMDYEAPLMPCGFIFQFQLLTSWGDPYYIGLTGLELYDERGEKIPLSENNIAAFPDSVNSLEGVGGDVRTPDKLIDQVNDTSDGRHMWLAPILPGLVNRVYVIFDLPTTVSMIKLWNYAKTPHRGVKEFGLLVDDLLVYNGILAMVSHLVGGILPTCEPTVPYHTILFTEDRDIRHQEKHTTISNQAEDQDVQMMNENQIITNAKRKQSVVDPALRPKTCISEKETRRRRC
UniProt P08670: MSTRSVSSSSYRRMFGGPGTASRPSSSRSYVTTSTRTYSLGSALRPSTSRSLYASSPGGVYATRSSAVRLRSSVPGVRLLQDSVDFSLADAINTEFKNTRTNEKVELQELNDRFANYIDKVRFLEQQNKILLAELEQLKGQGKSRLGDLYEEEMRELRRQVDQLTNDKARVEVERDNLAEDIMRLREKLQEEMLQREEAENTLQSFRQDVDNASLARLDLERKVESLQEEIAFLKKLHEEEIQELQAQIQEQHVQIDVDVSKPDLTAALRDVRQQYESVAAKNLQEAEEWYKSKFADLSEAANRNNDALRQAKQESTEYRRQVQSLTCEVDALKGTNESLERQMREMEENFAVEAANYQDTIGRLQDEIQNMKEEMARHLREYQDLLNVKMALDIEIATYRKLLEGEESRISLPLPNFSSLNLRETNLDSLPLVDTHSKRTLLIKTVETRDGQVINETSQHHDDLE
UniProt Q8IY31: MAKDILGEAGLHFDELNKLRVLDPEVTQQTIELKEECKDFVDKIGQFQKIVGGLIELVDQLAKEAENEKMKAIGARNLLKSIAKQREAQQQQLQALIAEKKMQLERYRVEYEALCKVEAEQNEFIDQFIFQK

Assays:
[1] = target: RAB8A (human) (UniProt P61006); assay: affinity purification with mass spectrometry; SF-TAP of tagged baits overexpressed in HEK293T (Strep-Tactin, then anti-FLAG M2 agarose, FLAG peptide elution; lysis 0.5% NP-40 in TBS, 4 °C); LC-MS/MS; interactions scored by socioaffinity (spoke and matrix evidence), FDR/FPR≤0.1
[2] = target: CBY1 (human) (UniProt Q9Y3M2); assay: affinity purification with mass spectrometry; SF-TAP-tagged bait overexpressed in HEK293T; lysis in 0.5% NP-40 in TBS (30 mM Tris-HCl pH 7.4, 150 mM NaCl); two steps at 4 °C: Strep-Tactin superflow (desthiobiotin elution), then anti-FLAG M2 agarose (FLAG peptide elution); LC-MS/MS; interactions scored by socioaffinity
[3] = target: KIAA0556 (human) (UniProt O60303); assay: affinity purification with mass spectrometry; SF-TAP of tagged baits overexpressed in HEK293T (Strep-Tactin, then anti-FLAG M2 agarose, FLAG peptide elution; lysis 0.5% NP-40 in TBS, 4 °C); LC-MS/MS; interactions scored by socioaffinity (spoke and matrix evidence), FDR/FPR≤0.1
[4] = target: vimentin (human) (UniProt P08670); assay: as above
[5] = target: IFT20 (human) (UniProt Q8IY31); assay: as above
[6] = target: T1, TRAF3IP1 (human) (UniProt Q8TDR0); assay: as above
T1 sequence: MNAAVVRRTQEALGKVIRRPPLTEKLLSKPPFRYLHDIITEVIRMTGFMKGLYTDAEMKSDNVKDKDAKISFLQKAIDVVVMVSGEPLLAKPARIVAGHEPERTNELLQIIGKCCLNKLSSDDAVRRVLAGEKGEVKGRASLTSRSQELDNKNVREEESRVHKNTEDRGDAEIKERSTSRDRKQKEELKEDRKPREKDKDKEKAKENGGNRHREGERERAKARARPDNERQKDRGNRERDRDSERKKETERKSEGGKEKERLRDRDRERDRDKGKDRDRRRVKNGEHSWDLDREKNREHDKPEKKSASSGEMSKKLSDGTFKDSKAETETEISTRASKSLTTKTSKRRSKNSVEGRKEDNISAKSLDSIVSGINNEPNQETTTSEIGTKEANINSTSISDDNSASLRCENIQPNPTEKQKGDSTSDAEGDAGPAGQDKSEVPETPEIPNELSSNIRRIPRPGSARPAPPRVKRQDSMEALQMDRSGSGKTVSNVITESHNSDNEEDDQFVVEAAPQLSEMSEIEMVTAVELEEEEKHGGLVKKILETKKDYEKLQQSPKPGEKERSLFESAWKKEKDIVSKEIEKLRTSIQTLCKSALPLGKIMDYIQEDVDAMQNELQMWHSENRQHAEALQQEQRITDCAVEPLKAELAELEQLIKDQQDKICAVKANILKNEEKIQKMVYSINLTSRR

B1: stomatin (protein, UniProt P27105 1-288)
chain: MAEKRHTRDSEAQRLPDSFKDSPSKGLGPCGWILVAFSFLFTVITFPISIWMCIKIIKEYERAIIFRLGRILQGGAKGPGLFFILPCTDSFIKVDMRTISFDIPPQEILTKDSVTISVDGVVYYRVQNATLAVANITNADSATRLLAQTTLRNVLGTKNLSQILSDREEIAHNMQSTLDDATDAWGIKVERVEIKDVKLPVQLQRAMAAEAEASREARAKVIAAEGEMNASRALKEASMVITESPAALQLRYLQTLTTIAAEKNSTIVFPLPIDMLQGIIGAKHSHLG
binding [1]: binds

binding [2]: binds
B2: CCDC8 (protein, UniProt Q9H0W5 1-538)
chain: MLQIGEDVDYLLIPREVRLAGGVWRVISKPATKEAEFRERLTQFLEEEGRTLEDVARIMEKSTPHPPQPPKKPKEPRVRRRVQQMVTPPPRLVVGTYDSSNASDSEFSDFETSRDKSRQGPRRGKKVRKMPVSYLGSKFLGSDLESEDDEELVEAFLRRQEKQPSAPPARRRVNLPVPMFEDNLGPQLSKADRWREYVSQVSWGKLKRRVKGWAPRAGPGVGEARLASTAVESAGVSSAPEGTSPGDRLGNAGDVCVPQASPRRWRPKINWASFRRRRKEQTAPTGQGADIEADQGGEAADSQREEAIADQREGAAGNQRAGAPADQGAEAADNQREEAADNQRAGAPAEEGAEAADNQREEAADNQRAEAPADQRSQGTDNHREEAADNQRAEAPADQGSEVTDNQREEAVHDQRERAPAVQGADNQRAQARAGQRAEAAHNQRAGAPGIQEAEVSAAQGTTGTAPGARARKQVKTVRFQTPGRFSWFCKRRRAFWHTPRLPTLPKRVPRAGEARNLRVLRAEARAEAEQGEQEDQL

binding [3]: binds
B3: MAK (protein, UniProt P20794 1-623)
chain: MNRYTTMRQLGDGTYGSVLMGKSNESGELVAIKRMKRKFYSWDECMNLREVKSLKKLNHANVIKLKEVIRENDHLYFIFEYMKENLYQLMKDRNKLFPESVIRNIMYQILQGLAFIHKHGFFHRDMKPENLLCMGPELVKIADFGLARELRSQPPYTDYVSTRWYRAPEVLLRSSVYSSPIDVWAVGSIMAELYMLRPLFPGTSEVDEIFKICQVLGTPKKSDWPEGYQLASSMNFRFPQCVPINLKTLIPNASNEAIQLMTEMLNWDPKKRPTASQALKHPYFQVGQVLGPSSNHLESKQSLNKQLQPLESKPSLVEVEPKPLPDIIDQVVGQPQPKTSQQPLQPIQPPQNLSVQQPPKQQSQEKPPQTLFPSIVKNMPTKPNGTLSHKSGRRRWGQTIFKSGDSWEELEDYDFGASHSKKPSMGVFKEKRKKDSPFRLPEPVPSGSNHSTGENKSLPAVTSLKSDSELSTAPTSKQYYLKQSRYLPGVNPKKVSLIASGKEINPHTWSNQLFPKSLGPVGAELAFKRSNAGNLGSYATYNQSGYIPSFLKKEVQSAGQRIHLAPLNATASEYTWNTKTGRGQFSGRTYNPTAKNLNIVNRAQPIPSVHGRTDWVAKYGGHR

binding [4]: binds
B4: NEFL (protein, UniProt P07196 1-543)
chain: MSSFSYEPYYSTSYKRRYVETPRVHISSVRSGYSTARSAYSSYSAPVSSSLSVRRSYSSSSGSLMPSLENLDLSQVAAISNDLKSIRTQEKAQLQDLNDRFASFIERVHELEQQNKVLEAELLVLRQKHSEPSRFRALYEQEIRDLRLAAEDATNEKQALQGEREGLEETLRNLQARYEEEVLSREDAEGRLMEARKGADEAALARAELEKRIDSLMDEISFLKKVHEEEIAELQAQIQYAQISVEMDVTKPDLSAALKDIRAQYEKLAAKNMQNAEEWFKSRFTVLTESAAKNTDAVRAAKDEVSESRRLLKAKTLEIEACRGMNEALEKQLQELEDKQNADISAMQDTINKLENELRTTKSEMARYLKEYQDLLNVKMALDIEIAAYRKLLEGEETRLSFTSVGSITSGYSQSSQVFGRSAYGGLQTSSYLMSTRSFPSYYTSHVQEEQIEVEETIEAAKAEEAKDEPPSEGEAEEEEKDKEEAEEEEAAEEEEAAKEESEEAKEEEEGGEGEEGEETKEAEEEEKKVEGAGEEQAAKKKD

binding [1]: binds
B5: RAB3IP (protein, UniProt Q96QF0 1-476)
chain: MGLKKMKGLSYDEAFAMANDPLEGFHEVNLASPTSPDLLGVYESGTQEQTTSPSVIYRPHPSALSSVPIQANALDVSELPTQPVYSSPRRLNCAEISSISFHVTDPAPCSTSGVTAGLTKLTTRKDNYNAEREFLQGATITEACDGSDDIFGLSTDSLSRLRSPSVLEVREKGYERLKEELAKAQRELKLKDEECERLSKVRDQLGQELEELTASLFEEAHKMVREANIKQATAEKQLKEAQGKIDVLQAEVAALKTLVLSSSPTSPTQEPLPGGKTPFKKGHTRNKSTSSAMSGSHQDLSVIQPIVKDCKEADLSLYNEFRLWKDEPTMDRTCPFLDKIYQEDIFPCLTFSKSELASAVLEAVENNTLSIEPVGLQPIRFVKASAVECGGPKKCALTGQSKSCKHRIKLGDSSNYYYISPFCRYRITSVCNFFTYIRYIQQGLVKQQDVDQMFWEVMQLRKEMSLAKLGYFKEEL

binding [5]: binds | binding [6]: binds
B6: BLOC1S2 (protein, UniProt Q6QNY1 1-142)
chain: MAAAAEGVLATRSDEPARDDAAVETAEEAKEPAEADITELCRDMFSKMATYLTGELTATSEDYKLLENMNKLTSLKYLEMKDIAINISRNLKDLNQKYAGLQPYLDQINVIEEQVAALEQAAYKLDAYSKKLEAKYKKLEKR

binding [3]: binds
B7: ICK (protein, UniProt Q9UPZ9 1-632)
chain: MNRYTTIRQLGDGTYGSVLLGRSIESGELIAIKKMKRKFYSWEECMNLREVKSLKKLNHANVVKLKEVIRENDHLYFIFEYMKENLYQLIKERNKLFPESAIRNIMYQILQGLAFIHKHGFFHRDLKPENLLCMGPELVKIADFGLAREIRSKPPYTDYVSTRWYRAPEVLLRSTNYSSPIDVWAVGCIMAEVYTLRPLFPGASEIDTIFKICQVLGTPKKTDWPEGYQLSSAMNFRWPQCVPNNLKTLIPNASSEAVQLLRDMLQWDPKKRPTASQALRYPYFQVGHPLGSTTQNLQDSEKPQKGILEKAGPPPYIKPVPPAQPPAKPHTRISSRQHQASQPPLHLTYPYKAEVSRTDHPSHLQEDKPSPLLFPSLHNKHPQSKITAGLEHKNGEIKPKSRRRWGLISRSTKDSDDWADLDDLDFSPSLSRIDLKNKKRQSDDTLCRFESVLDLKPSEPVGTGNSAPTQTSYQRRDTPTLRSAAKQHYLKHSRYLPGISIRNGILSNPGKEFIPPNPWSSSGLSGKSSGTMSVISKVNSVGSSSTSSSGLTGNYVPSFLKKEIGSAMQRVHLAPIPDPSPGYSSLKAMRPHPGRPFFHTQPRSTPGLIPRPPAAQPVHGRTDWASKYASRR
